Measured values taken from patent US20020132296.

Biological target: myelin basic protein

B1: Glutathionine S-transferase (GST)/novel human kinase fusion (protein)
chain: MAHSPVQSGLPGMQNLKADPEELFTKLEKIGKGSFGEVFKGIDNRTQKVVAIKIIDLEEAEDEIEDIQQEITVLSQCDSPYVTKYYGSYLKDTKLWIIMEYLGGGSALDLLEPGPLDETQIATILREILKGLDYLHSEKKIHRDIKAANVLLSEHGEVKLADFGVAGQLTDTQIKRNTFVGTPFWMAPEVIKQSAYDSKADIWSLGITAIELARGEPPHSELHPMKVLFLIPKNNPPTLEGNYSKPLKEFVEACLNKEPSFRPTAKELLKHKFILRNAKKTSYLTELIDRYKRWKAEQSHDDSSSEDSDAETDGQASGGSDSGDWIFTIREKDPKNLENGALQPSDLDRNKMKDIPKRPFSQCLSTIISPLFAELKEKSQACGGNLGSIEELRGAIYLAEEACPGISDTMVAQLVQRLQRYSLSGGGTSSH
  phosphorylation of MBP in an in vitro kinase assay with [gamma-32P] ATP, SDS gel and autoradiograph (FIG. 6): Phosphorylation of MBP (1 8-20kDa) and autophosphorylation of the fusion protein kinase (76.9kDa) are evident in lane 1
